# Laboratory results: patent US20070134261A1, “Effectors of innate immunity” (priority 2001, published 2007)
# Several values for one entry are separate records, joined by “and”; a condition that tells them apart may be missing. Equal values may be shown once. Part of at least one peptide drawing is inferred or uncertain, most often the ends. No end group written: not given here.
# Tested on: human CD14+ monocytes
# Assay: Human 21K DNA microarrays of CD14+ monocytes from PBMC stimulated with SEQ ID NO: 7 and/or LPS (Tables 69-72)
# Format: cell-based
sequence,measurement,setting,value
KSRIVPAIPVSLL [SEQ ID NO: 7],Fold Change by LPS + SEQ 7,"gene Q86WW9, human monocytes",47.2 fold
same,Fold Change SEQ ID NO: 7,gene Q86X05,2.6
same,Fold Change by LPS + SEQ 7,gene Q86X05,2.3 fold
same,Fold Change SEQ ID NO: 7,gene Q86XE5,−1.6
same,Fold Change by LPS + SEQ 7,gene Q86XK7,1.5 fold
same,Fold Change by LPS + SEQ 7,"gene Q86XN7, human monocytes",3.8 fold
same,Fold Change by LPS + SEQ 7,"gene Q96AF2, human monocytes",4.1 fold
same,Fold Change by LPS + SEQ 7,gene Q96AP0,1.8 fold
same,Fold Change SEQ ID NO: 7,gene Q96BW9,3.0
same,Fold Change by LPS + SEQ 7,"gene Q96BW9, human monocytes",2.7 fold
same,Fold Change by LPS + SEQ 7,gene Q96BY9,−1.8 fold
same,Fold Change by LPS + SEQ 7,gene Q96C10,1.7 fold
same,Fold Change by LPS + SEQ 7,gene Q96CD2,−1.7 fold
same,Fold Change by LPS + SEQ 7,"gene Q96CN5, human monocytes",6.6 fold
same,Fold Change by LPS + SEQ 7,gene Q96CR0,−1.5 fold
same,Fold Change by LPS + SEQ 7,"gene Q96DM7, human monocytes",2.4 fold
same,Fold Change by LPS + SEQ 7,"gene Q96E44, human monocytes",7.4 fold
same,Fold Change SEQ ID NO: 7,gene Q96EC8,2.8
same,Fold Change by LPS + SEQ 7,"gene Q96EC8, human monocytes",2.7 fold
same,Fold Change by LPS + SEQ 7,gene Q96EG4,−1.8 fold
same,Fold Change by LPS + SEQ 7,gene Q96FP9,−2.1 fold
same,Fold Change by LPS + SEQ 7,gene Q96FR9,−2.5 fold
same,Fold Change by LPS + SEQ 7,gene Q96FV0,−2.2 fold
same,Fold Change by LPS + SEQ 7,gene Q96GC0,−1.5 fold
same,Fold Change by LPS + SEQ 7,gene Q96H61,−1.5 fold
same,Fold Change by LPS + SEQ 7,gene Q96HP4,−1.6 fold
same,Fold Change by LPS + SEQ 7,gene Q96HQ2,−1.6 fold
same,Fold Change by LPS + SEQ 7,"gene Q96HQ3, human monocytes",2.9 fold
same,Fold Change by LPS + SEQ 7,"gene Q96IB9, human monocytes",2.4 fold
same,Fold Change by LPS + SEQ 7,gene Q96IJ6,1.8 fold
same,Fold Change SEQ ID NO: 7,gene Q96IR7,−1.7
same,Fold Change SEQ ID NO: 7,gene Q96J64,1.7
same,Fold Change by LPS + SEQ 7,gene Q96K66,−1.8 fold
same,Fold Change by LPS + SEQ 7,gene Q96L16,−1.5 fold
same,Fold Change SEQ ID NO: 7,gene Q96LI1,1.9
same,Fold Change by LPS + SEQ 7,gene Q96LP3,2.3 fold
same,Fold Change SEQ ID NO: 7,gene Q96LR7,−1.5
same,Fold Change by LPS + SEQ 7,"gene Q96LW2, human monocytes",15.3 fold
same,Fold Change by LPS + SEQ 7,gene Q96LX7,1.7 fold
same,Fold Change by LPS + SEQ 7,gene Q96M86,1.6 fold
same,Fold Change by LPS + SEQ 7,"gene Q96MA7, human monocytes",5.1 fold
same,Fold Change by LPS + SEQ 7,gene Q96MB3,1.6 fold
same,Fold Change by LPS + SEQ 7,gene Q96MI8,−1.6 fold
same,Fold Change by LPS + SEQ 7,gene Q96MN5,2.2 fold
same,Fold Change SEQ ID NO: 7,gene Q96MX1,2.1
same,Fold Change by LPS + SEQ 7,"gene Q96MX1, human monocytes",4.0 fold
same,Fold Change SEQ ID NO: 7,gene Q96MY4,−1.6
same,Fold Change by LPS + SEQ 7,gene Q96N98,1.6 fold
same,Fold Change SEQ ID NO: 7,gene Q96NJ4,1.9
same,Fold Change by LPS + SEQ 7,gene Q96NU6,2.0 fold
same,Fold Change by LPS + SEQ 7,"gene Q96PN6, human monocytes",3.3 fold
same,Fold Change SEQ ID NO: 7,gene Q96PY3,1.8
same,Fold Change by LPS + SEQ 7,gene Q96PY3,1.8 fold
same,Fold Change by LPS + SEQ 7,gene Q96QA0,1.9 fold
same,Fold Change by LPS + SEQ 7,"gene Q96SU5, human monocytes",2.8 fold
same,Fold Change by LPS + SEQ 7,"gene Q96SV6, Q9UJY0",1.5 fold
same,Fold Change SEQ ID NO: 7,gene Q96T82,3.2
same,Fold Change by LPS + SEQ 7,"gene Q96T82, human monocytes",4.0 fold
same,Fold Change by LPS + SEQ 7,gene Q969E4,−1.9 fold
same,Fold Change by LPS + SEQ 7,"gene Q969S1, human monocytes",4.5 fold
same,Fold Change SEQ ID NO: 7,gene Q14843,1.5
same,Fold Change by LPS + SEQ 7,gene Q15061,2.2 fold
same,Fold Change SEQ ID NO: 7,gene Q92519,2.9
same,Fold Change by LPS + SEQ 7,"gene Q92519, human monocytes",3.4 fold
same,Fold Change by LPS + SEQ 7,gene Q96136,1.9 fold
same,Fold Change by LPS + SEQ 7,"gene RAB3B, human monocytes",2.4 fold
same,Fold Change SEQ ID NO: 7,gene RAB13,1.6
same,Fold Change by LPS + SEQ 7,"gene RAB22A, human monocytes",11.9 fold
same,Fold Change by LPS + SEQ 7,gene RAB27B,−1.8 fold
same,Fold Change by LPS + SEQ 7,"gene RAD52, human monocytes",6.9 fold
same,Fold Change SEQ ID NO: 7,gene RAGE,1.8
same,Fold Change by LPS + SEQ 7,gene RANBP9,2.1 fold
same,Fold Change by LPS + SEQ 7,gene RAP1B,1.7 fold
same,Fold Change by LPS + SEQ 7,gene RAP2C,1.7 fold
same,Fold Change SEQ ID NO: 7,gene RASA2,2.2
same,Fold Change by LPS + SEQ 7,gene RAX,1.7 fold
same,Fold Change by LPS + SEQ 7,"gene RBM3, human monocytes",3.6 fold
same,Fold Change by LPS + SEQ 7,gene RBM8A,1.7 fold
same,Fold Change SEQ ID NO: 7,gene RBMS3,1.7
same,Fold Change by LPS + SEQ 7,gene RBMS3,2.1 fold
same,Fold Change by LPS + SEQ 7,gene RBP1,125.8 fold
same,Fold Change by LPS + SEQ 7,"gene RBP1, human monocytes",125.8 fold
same,Fold Change SEQ ID NO: 7,gene RBP5,2.0
same,Fold Change by LPS + SEQ 7,gene RBPSUHL,−1.6 fold
same,Fold Change SEQ ID NO: 7,gene RCE1,1.5
same,Fold Change by LPS + SEQ 7,"gene RCL1, human monocytes",13.5 fold
same,Fold Change SEQ ID NO: 7,gene RCN1,2.9
same,Fold Change by LPS + SEQ 7,"gene REG1A, human monocytes",2.8 fold
same,Fold Change by LPS + SEQ 7,"gene REPS1, human monocytes",5.6 fold
same,Fold Change SEQ ID NO: 7,gene REV1L,−1.7
same,Fold Change by LPS + SEQ 7,gene RFC4,1.5 fold
same,Fold Change by LPS + SEQ 7,gene RFX1,1.5 fold
same,Fold Change by LPS + SEQ 7,gene RGS1,1.5 fold
same,Fold Change SEQ ID NO: 7,gene RGS11,1.6
same,Fold Change by LPS + SEQ 7,"gene RGS14, human monocytes",13.1 fold
same,Fold Change SEQ ID NO: 7,gene RGS17,1.6
same,Fold Change by LPS + SEQ 7,"gene RHBDF1, human monocytes",54.7 fold
same,Fold Change by LPS + SEQ 7,gene RIN2,1.9 fold
same,Fold Change by LPS + SEQ 7,gene RIPK2,2.1 fold
same,Fold Change by LPS + SEQ 7,gene RNF8,−1.5 fold
same,Fold Change by LPS + SEQ 7,"gene RNF24, human monocytes",16.2 fold
same,Fold Change by LPS + SEQ 7,gene RNF34,−1.8 fold
same,Fold Change by LPS + SEQ 7,"gene RNF41, human monocytes",5.5 fold
same,Fold Change by LPS + SEQ 7,gene RNF122,−1.7 fold
same,Fold Change by LPS + SEQ 7,gene RNH,1.8 fold
same,Fold Change SEQ ID NO: 7,gene RPL10A,−1.7
same,Fold Change SEQ ID NO: 7,"gene RPO2TC1, PC4",1.6
same,Fold Change by LPS + SEQ 7,"gene RPS7, human monocytes",5.4 fold
same,Fold Change by LPS + SEQ 7,gene RRBP1,2.1 fold
same,Fold Change by LPS + SEQ 7,gene RSU1,1.7 fold
same,Fold Change SEQ ID NO: 7,gene RTTN,1.6
same,Fold Change SEQ ID NO: 7,gene RUFY2,1.8
same,Fold Change by LPS + SEQ 7,"gene S100A12, human monocytes",2.5 fold
same,Fold Change by LPS + SEQ 7,"gene SACM1L, human monocytes",10.9 fold
same,Fold Change by LPS + SEQ 7,gene SACS,1.5 fold
same,Fold Change by LPS + SEQ 7,gene SART1,1.7 fold
same,Fold Change by LPS + SEQ 7,"gene SBNO1, human monocytes",22.2 fold
same,Fold Change by LPS + SEQ 7,gene SDK1,1.5 fold
same,Fold Change by LPS + SEQ 7,gene SDPR,1.7 fold
same,Fold Change by LPS + SEQ 7,gene SEC11L1,−1.5 fold
same,Fold Change by LPS + SEQ 7,gene SERPINA1,1.5 fold
same,Fold Change by LPS + SEQ 7,gene SERPINA10,−1.6 fold
same,Fold Change by LPS + SEQ 7,gene SERPINB1,1.8 fold
same,Fold Change SEQ ID NO: 7,gene SERPINB8,2.3
same,Fold Change by LPS + SEQ 7,gene SERPINB8,2.2 fold
same,Fold Change by LPS + SEQ 7,"gene SERPINB8, human monocytes",2.5 fold
same,Fold Change by LPS + SEQ 7,gene SERTAD1,1.8 fold
same,Fold Change by LPS + SEQ 7,gene SF3B5,1.6 fold
same,Fold Change by LPS + SEQ 7,gene SFPQ,1.6 fold
same,Fold Change by LPS + SEQ 7,gene SFRP5,−1.6 fold
same,Fold Change SEQ ID NO: 7,gene SGCG,−2.1
same,Fold Change SEQ ID NO: 7,gene SGTB,−1.6
same,Fold Change SEQ ID NO: 7,gene SH3BGR,−1.6
same,Fold Change by LPS + SEQ 7,gene SH3MD3,−1.6 fold
same,Fold Change SEQ ID NO: 7,gene SHANK1,−2.2
same,Fold Change by LPS + SEQ 7,gene SHMT1,1.7 fold
same,Fold Change SEQ ID NO: 7,gene SIAT4C,1.9
same,Fold Change by LPS + SEQ 7,gene SIAT4C,1.9 fold
same,Fold Change SEQ ID NO: 7,gene SIAT8B,1.6
same,Fold Change SEQ ID NO: 7,gene SIAT8E,1.5
same,Fold Change by LPS + SEQ 7,gene SIGLEC5,1.8 fold
same,Fold Change by LPS + SEQ 7,gene SIPA1,1.9 fold
same,Fold Change by LPS + SEQ 7,"gene SIRT1, human monocytes",11.8 fold
same,Fold Change by LPS + SEQ 7,gene SKP2,1.5 fold
same,Fold Change by LPS + SEQ 7,gene SLAMF1,1.7 fold
same,Fold Change by LPS + SEQ 7,gene SLAMF7,2.0 fold
same,Fold Change by LPS + SEQ 7,gene SLC1A4,−2.3 fold
same,Fold Change SEQ ID NO: 7,gene SLC1A6,−1.5
same,Fold Change by LPS + SEQ 7,gene SLC7A5,1.8 fold
same,Fold Change by LPS + SEQ 7,gene SLC7A7,1.7 fold
same,Fold Change by LPS + SEQ 7,gene SLC7A13,2.2 fold
same,Fold Change SEQ ID NO: 7,gene SLC9A7,1.5
same,Fold Change SEQ ID NO: 7,gene SLC11A1,1.6
same,Fold Change by LPS + SEQ 7,gene SLC11A1,1.5 fold
same,Fold Change by LPS + SEQ 7,gene SLC16A9,−1.9 fold
same,Fold Change by LPS + SEQ 7,"gene SLC16A10, human monocytes",3.7 fold
same,Fold Change by LPS + SEQ 7,gene SLC17A5,1.9 fold
same,Fold Change SEQ ID NO: 7,gene SLC22A11,1.5
same,Fold Change by LPS + SEQ 7,gene SLC22A11,1.8 fold and 1.5 fold
same,Fold Change by LPS + SEQ 7,gene SLC22A13,−1.7 fold
same,Fold Change by LPS + SEQ 7,gene SLC23A3,1.7 fold
same,Fold Change SEQ ID NO: 7,gene SLC25A20,1.6
same,Fold Change by LPS + SEQ 7,gene SLC26A10,−2.5 fold
same,Fold Change by LPS + SEQ 7,"gene SLC27A6, human monocytes",9.2 fold
same,Fold Change SEQ ID NO: 7,gene SLC30A5,1.9
same,Fold Change by LPS + SEQ 7,gene SLC30A5,1.7 fold
same,Fold Change SEQ ID NO: 7,gene SLC35B3,1.5
same,Fold Change by LPS + SEQ 7,gene SLC35B3,1.7 fold
same,Fold Change SEQ ID NO: 7,gene SLC35F3,−1.5
same,Fold Change by LPS + SEQ 7,gene SLC37A1,1.6 fold
same,Fold Change by LPS + SEQ 7,"gene SLC39A8, human monocytes",2.5 fold
same,Fold Change by LPS + SEQ 7,gene SLC39A10,−1.7 fold
same,Fold Change SEQ ID NO: 7,gene SMCR8,−1.7
same,Fold Change by LPS + SEQ 7,"gene SMF, human monocytes",51.1 fold
same,Fold Change by LPS + SEQ 7,gene SMURF1,1.7 fold
same,Fold Change SEQ ID NO: 7,gene SMURF2,2.6
same,Fold Change by LPS + SEQ 7,"gene SMURF2, human monocytes",42.1 fold
same,Fold Change SEQ ID NO: 7,gene SNAPAP,2.1
same,Fold Change by LPS + SEQ 7,"gene SNRPC, human monocytes",4.6 fold
same,Fold Change by LPS + SEQ 7,"gene SNTB2, human monocytes",3.0 fold
same,Fold Change by LPS + SEQ 7,gene SNTG1,1.6 fold
